Results as given in PubChem BioAssay AID624297 (National Center for Advancing Translational Sciences (NCATS), 2012).
Among all 340,000 compounds or so, about 6,200 (1.8%) were called active. Inconclusive results, whose numbers are uncertain, are shown with a selection of clear calls. The call rests on the fitted dose curve; in most records, active means well fitted activation curve with a large enough effect; inconclusive means small, poorly fitted or top-dose-only effect; inactive means no such curve, though single readings can be large or run the other way. A potency beside an inconclusive call is a rough fit, not a confirmed value.

experiment: A quantitative high throughput screen for small molecules that induce DNA re-replication in SW480 colon adenocarcinoma cells.; further: nearly all actives have a fitted effect of over 55% in size; on re-replication activation: % of control where 0% means no effect; settings: Hoechst DNA content imaging, 48 h; re-replication activation: at 46.1 µM (top of the series) unless noted
Procedure, shortened: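 Image-based DNA-content assay: after two days of treatment, nuclei were labelled with the DNA dye Hoechst and imaged, and hits were compounds raising the count of nuclei showing high fluorescence intensity.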
Potency means the concentration at half of the fitted maximal effect.

| Structure (SMILES) | Potency | re-replication activation |
| --- | --- | --- |
| COc1ccccc1CN(C)CC(=O)Nc1cccc2ccccc12 | inactive |  |
| CCn1c(SCC(=O)Nc2ccc(F)cc2)nc2ccccc2c1=O | inactive |  |
| O=C(N/N=C/c1ccc(-c2cccc([N+](=O)[O-])c2)o1)c1ccccc1O | inconclusive: 29.1 µM [activator, single point] |  |
| O=C(CNCc1ccc(Cl)cc1)Nc1ccc(C(=O)N2CCCCC2)cc1 | inactive |  |
| COc1ccc(Cc2nc3ccc(C(=O)NCCc4cccc(C)n4)cc3o2)cc1 | inconclusive: 0.164 µM [activator, full curve, poor fit] |  |
| Cc1ccc(C)c(C2NC(=O)c3ccccc3N2)c1 (centres undefined) | active: 7.31 µM |  |
| COc1ccc(C(CNC(=O)c2cc3c(s2)CCC(C)C3)N2CCCC2)cc1 (centres undefined) | inconclusive: 29.1 µM [activator, single point] |  |
| CCN(C(=O)c1ccc(S(C)(=O)=O)cc1)C12CC3CC(CC(C3)C1)C2 | inactive |  |
| COc1ccccc1N1CCN(C2CCCN(C(=O)c3oc(C)cc3C)C2)CC1 (centres undefined) | inconclusive: 16.4 µM [activator, single point] |  |
| CC(Sc1nnc(CC(=O)Nc2ccccc2F)n1C)C(=O)Nc1nccs1 (centres undefined) | inactive |  |
| FC(F)Oc1ccc(NC(=S)Nn2cnnc2)cc1 | inconclusive: 29.1 µM [activator, single point] |  |
| Cc1ccccc1N(CC(=O)Nc1ccccc1C(=O)NCc1ccco1)S(=O)(=O)c1ccccc1 | inconclusive: 16.4 µM [activator, single point] |  |
| COc1ccccc1NC(=O)c1ccc(SCC(=O)NCc2ccccc2Cl)c([N+](=O)[O-])c1 | inconclusive: 25.9 µM [activator, partial curve, poor fit] |  |
| CSc1ccc(S(=O)(=O)Nc2c(C)cccc2C)cc1 | inactive |  |
| Cc1ccc(S(=O)(=O)N(CC(=O)N2CCCC2)C2CCCCC2)cc1 | inconclusive: 16.4 µM [activator, single point] |  |
| O=C(c1ccccc1)N1CCN(c2ccc([N+](=O)[O-])c(NCC3CCCO3)c2)CC1 (centres undefined) | inactive |  |
| CCN1C(=O)N[C@@H](c2ccccc2)[C@H](C(=O)OC)[C@H]1C | inactive |  |
| O=C(NCCc1ccccc1F)C1CCC(=O)N(Cc2ccc(Cl)cc2)C1 (centres undefined) | inconclusive: 29.1 µM [activator, single point] |  |
| O=[N+]([O-])c1ccc(N/N=C/c2ccccc2O)cc1 | inconclusive: 10.3 µM [activator, partial curve] |  |
| C1=NN(c2ccccc2)C=NN1c1ccccc1 | inconclusive: 16.4 µM [activator, single point] |  |
| COc1cc(C(=O)NCC(=O)N2CCN(S(=O)(=O)c3ccccc3C(F)(F)F)CC2)cc(OC)c1OC | inconclusive: 18.4 µM [activator, single point] |  |
| CCN1CCN(c2nc(NCCO)c3ccccc3n2)CC1 | inactive |  |
| COc1ccc(CNC(=O)C(c2ccc(C)o2)N(C(=O)c2snc(C(N)=O)c2N)c2ccccc2OC)cc1 (centres undefined) | inconclusive: 29.1 µM [activator, single point] |  |

| Structure (SMILES) | Potency | re-replication activation |
| --- | --- | --- |
| O=C(NNC1=C(C(=O)C(F)(F)F)CCC1)c1ccccc1O |  | inactive: -2.99% [at 9.22 µM] |
| Cc1ccc(-n2c(C)cc(/C=N/Nc3ccc([N+](=O)[O-])cn3)c2C)c(C)c1 | inconclusive: 5.17 µM [activator, partial curve, poor fit] |  |
| COc1cc(NC(=O)c2ccccc2)ccc1NC(=O)c1cc2ccccc2o1 | inactive |  |
| O=C(Nn1cnnc1)C(Sc1ccccc1)c1ccccc1 (centres undefined) | inconclusive: 29.1 µM [activator, partial curve, poor fit] |  |
| CCc1ccc(OCC(=O)Nc2ccncc2)c(Br)c1 | inconclusive: 20.6 µM [activator, single point] |  |
| Fc1ccc(-n2nnc(-c3ccccc3Br)n2)cc1 | inconclusive: 29.1 µM [activator, single point] |  |
| COc1ccc(F)cc1CSc1nnnn1-c1ccc(O)cc1 | inactive |  |
| Nc1c(C(=O)c2ccc(Cl)cc2)sc2nsc(SCCN3CCOCC3)c12 | inconclusive: 1.16 µM [activator, full curve, poor fit] |  |
| Cc1ccc2oc(-c3cccc(NC(=O)c4ccc(Br)o4)c3C)nc2c1 | inactive |  |
| CCCCC(=O)Nc1ccc(C(=O)NNC(=O)CCc2ccccc2)cc1 | inconclusive: 20.6 µM [activator, partial curve, poor fit] |  |
| O=S(=O)(c1cccc2nonc12)N1CCN(c2ccc(F)cc2)CC1 | inconclusive: 18.4 µM [activator, single point] |  |
| CC(=O)/C(C#N)=C1\NC(=O)C(Cc2ccc(F)cc2)S1 (centres undefined) | inconclusive: 13 µM [activator, partial curve, poor fit] |  |
| C=CCn1c(=O)c(C(=O)Nc2ncccc2O)c(O)c2ccccc21 | inconclusive: 29.1 µM [activator, single point] |  |
| N#Cc1c(-c2ccc(F)cc2)noc1N | inconclusive: 6.51 µM [activator, partial curve] |  |
| COc1ccc(C(C(=O)NC2CCCCC2)N(C(=O)CCl)c2cccc(Cl)c2)cc1 (centres undefined) | inconclusive: 0.651 µM [activator, full curve, poor fit] |  |
| O=C(CC(=O)NCc1ccccc1)NCc1ccccc1 | inactive |  |
| CCc1cc2c(=O)c(-c3nc4ccccc4[nH]3)coc2c(CN2CCCCC2)c1O | inactive |  |
| COc1cccc(NC(=O)CSc2nc3ccccc3c(=O)n2CCCC(=O)N2CCCC2)c1 | inactive |  |
| Cc1cc(C(=O)N/N=C/c2ccc(C)s2)n[nH]1 | inactive |  |
| O=C(Nc1ccc(-c2csc(Nc3cccc(C(F)(F)F)c3)n2)cc1)c1ccccc1 | inconclusive: 29.1 µM [activator, single point] |  |
| Cc1nn(CC(=O)NCc2ccc(Cl)cc2)c(C)c1[N+](=O)[O-] | inconclusive: 0.92 µM [activator, full curve, poor fit] |  |
| CCc1c(C)n([O-])c2c([n+]1=O)CCC2 | inconclusive: 6.51 µM [activator, single point] |  |
| COCCN(C(=O)COC(=O)C1CC1C)c1c(N)n(Cc2ccccc2)c(=O)[nH]c1=O (centres undefined) | inactive |  |

3 compounds out of the list, sorted by formula weight, smallest number first:

| Structure (SMILES) | Potency | re-replication activation |
| --- | --- | --- |
| CC(=O)/C(C#N)=C1\NC(=O)C(Cc2ccc(F)cc2)S1 (centres undefined) | inconclusive: 13 µM [activator, partial curve, poor fit] |  |
| Fc1ccc(-n2nnc(-c3ccccc3Br)n2)cc1 | inconclusive: 29.1 µM [activator, single point] |  |
| COc1cc(NC(=O)c2ccccc2)ccc1NC(=O)c1cc2ccccc2o1 | inactive |  |

Additional structures follow:

| Structure (SMILES) | Potency | re-replication activation |
| --- | --- | --- |
| c1ccc(-c2nc(N3CCCCC3)nc3ccccc23)cc1 | inconclusive: 6.51 µM [activator, single point] |  |
| COc1ccc(/C=C2\OC(=S)N(C)C2=O)cc1 | inconclusive: 29.1 µM [activator, single point] |  |
| Cc1oc(C(C)(C)C)cc1C(=O)N1CCN(C(c2ccccc2)c2ccccc2)CC1 | inconclusive: 1.84 µM [activator, full curve, poor fit] |  |
| CNc1ccc(Br)cc(C(=O)/C=C/c2ccc3c(c2)OCO3)c1=O | inconclusive: 29.1 µM [activator, single point] |  |
| CCCS(=O)(=O)c1ncc(Cl)c(C(=O)Nc2ccc(S(=O)(=O)Nc3ncccn3)cc2)n1 | inconclusive: 1.46 µM [activator, partial curve, poor fit] |  |
| O=C(N/N=C/c1ccc[nH]1)c1cc2ccccc2cc1O | inconclusive: 16.4 µM [activator, single point] |  |
| C#CCn1cc(C=C2C(=O)c3ccccc3C2=O)c2ccccc21 | inconclusive: 2.59 µM [activator, full curve] |  |
| C=CCNC(=O)NC(=O)COC(=O)c1ccccc1Sc1ccc(C(F)(F)F)cc1[N+](=O)[O-] | inconclusive: 29.1 µM [activator, single point] |  |
| COC(=O)C1=CN(C2CC2)C=C(C(=O)OC)C1c1ccc(C(F)(F)F)cc1 | inconclusive: 11.6 µM [activator, partial curve, poor fit] |  |
| COc1ccc(Oc2c(Cl)cnn(-c3ccc(Cl)c(Cl)c3)c2=O)cc1 | inconclusive: 29.1 µM [activator, single point] |  |
| Cc1ccccc1OCC(=O)Nc1ccc2c(c1)Cc1ccccc1-2 | inactive |  |
| Cc1ccc(NC(=O)CNC(=O)c2ccc(C(C)(C)C)cc2)cc1S(=O)(=O)N1CCOCC1 | inconclusive: 29.1 µM [activator, single point] |  |
| CCc1ccc2c(c1)N(C[C@H](C)CN(C)C)c1ccccc1S2 | inconclusive: 29.9 µM [activator, single point] |  |
| C=CCn1cc(C(=O)NCCCN(CC)CC)c(=O)c2cc(S(=O)(=O)N3CCC(C)CC3)ccc21 | inactive |  |
| CC(/C=N/NC(=O)c1nnn(-c2nonc2N)c1CN1CCCCC1)=C\c1ccccc1 | inconclusive: 13 µM [activator, partial curve, poor fit] |  |
| CSCCC1NC2(C(=O)Nc3c2ccc(Cl)c3C)[C@@H]2C(=O)N(C3CCCC3)C(=O)[C@H]12 (some centres undefined) | inconclusive: 25.9 µM [activator, partial curve, poor fit] |  |
| O=C(Nc1ccccc1C(=O)N1CCCC1)c1ncoc1-c1cccc(Cl)c1 | inconclusive: 3.66 µM [activator, single point] |  |
| CCN(CC)CCNC(=O)c1ccc(NC(=O)c2ccc3c(c2)CCC3)cc1 | active: 18.4 µM |  |
| COc1ccc(C(=O)COc2ccccc2C#N)cc1 | inactive |  |
| CCc1ccc(NC(=O)CCc2ccc(C)o2)cc1 | inconclusive: 0.0065 µM [activator, full curve, poor fit] |  |
| O=[N+]([O-])c1ccc(/C=N/Nc2ccnc3cc(Cl)ccc23)o1 | active: 3.66 µM |  |
| CC(C)N(C(=O)CN1C(=O)NC(c2ccccc2)(c2ccccc2)C1=O)C(C)C | inactive |  |
| COc1ccc(-n2nnc3c(SCC(=O)NCc4ccco4)ncnc32)cc1 | inconclusive: 11.6 µM [activator, partial curve, poor fit] |  |
